Measurements as given in patent publication US20110028444A1, “PHARMACEUTICALLY ACCEPTABLE SALTS OF ANTI-INFECTION QUINOLONE COMPOUNDS” (priority 2008, published 2011).
Some of these results come from one statement about several compounds together.

Test system: SD rats
Details: continuous intravenous administration

| Structure (SMILES) | dose at which SD rats showed toxicity reaction |
| --- | --- |
| CC(O)C(=O)O.C[C@@H]1Sc2c(C(=O)O)c(=O)c3cc(F)c(N4CCNCC4)cc3n21 [Compound 4, (S)-6-fluoro-1-methyl-4-oxo-7-(1-piperazinyl)-1H,4H-[1,3]thiazeto[3,2-a]quinoline-3-carboxylic acid lactate] | greater than 60 mg/kg·bw |
| CS(=O)(=O)O.C[C@@H]1Sc2c(C(=O)O)c(=O)c3cc(F)c(N4CCNCC4)cc3n21 [Compound 5, (S)-6-fluoro-1-methyl-4-oxo-7-(1-piperazinyl)-1H,4H-[1,3]thiazeto[3,2-a]quinoline-3-carboxylic acid mesylate] | greater than 60 mg/kg·bw |
